These are yes or no findings as the source states them, for the method shown. Where a sequence is shown, tags or fusion partners need not be part of it.
Target: T1, mouse H-FABP (heart-type fatty acid-binding protein), recombinant with N-terminal histidine6-tag (mouse), P11404
T1 chain: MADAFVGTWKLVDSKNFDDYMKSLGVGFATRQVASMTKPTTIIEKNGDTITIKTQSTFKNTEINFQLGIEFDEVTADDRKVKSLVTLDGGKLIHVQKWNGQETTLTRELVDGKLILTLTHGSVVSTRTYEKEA
Assay: NMR 15N relaxation (rotational correlation time from R2/R1, molecular weight estimate); 1.0 mM [15N]-labelled protein in 20 mM HEPES, 150 mM NaCl, pH 7.0; 298 K; Bruker 600 MHz; tau-c 10.82 ns, Mw by an empirical equation; both purified
Conditions: remark: other sources report otherwise

B1: mouse H-FABP (heart-type fatty acid-binding protein), recombinant with N-terminal histidine6-tag, P11404 1-133 (protein)
chain: T1 chain
  binding: no binding (tested: 1.0 mM)
